Assay results published in US20260274946A1.
These are yes or no findings as the source states them, for the method shown. Some binding calls cover weakened binding; strength is not graded here.

Legend:
[1] = target: CD19 on SupT1 cells engineered to express CD19 (UniProt P15391); test: flow cytometry, SupT1.CD19 cells against SupT1 cells, anti-mouse secondary
[2] = target: CD19 on SupT1 cells engineered to express CD19 (UniProt P15391); test: flow cytometry staining of SupT1 (CD19 negative) and SupT1 cells engineered to be CD19 positive
[3] = target: recombinant human truncated CD19-mouse IgG2a Fc fusion (human; mouse) (UniProt P15391); test: flow cytometry, scFv displayed on SupT1 cells stained with soluble CD19-mouse IgG2a Fc fusion

binding [1]	binding [2]	binding [3]	Binder
binds	binds	–	recombinant CAT19 antibody (antibody, V domains shown) VH: QVQLQQSGPELVKPGASVKISCKASGYAFSSSWMNWVKQRPGKGLEWIGRIYPGDEDTNYSGKFKDKATLTADKSSTTAYMQLSSLTSEDSAVYFCARSLLYGDYLDYWGQGTTLTVSS VL: QIVLTQSPAIMSASPGEKVTMTCSASSSVSYMHWYQQKSGTSPKRWIYDTSKLASGVPDRFSGSGSGTSYFLTINNMEAEDAATYYCQQWNINPLTFGAGTKLELKR
–	–	binds	CAT19 scFv in VL-VH orientation, displayed on SupT1 cells in a non-signalling CAR format (scFv, not shown: small tags and cut ends; large carriers) QIVLTQSPAIMSASPGEKVTMTCSASSSVSYMHWYQQKSGTSPKRWIYDTSKLASGVPDRFSGSGSGTSYFLTINNMEAEDAATYYCQQWNINPLTFGAGTKLELKRSGGGGSGGGGSGGGGSQVQLQQSGPELVKPGASVKISCKASGYAFSSSWMNWVKQRPGKGLEWIGRIYPGDEDTNYSGKFKDKATLTADKSSTTAYMQLSSLTSEDSAVYFCARSLLYGDYLDYWGQGTTLTVSS

Further lines, the binder ahead of its results:

Binder	binding [1]	binding [2]	binding [3]
4g7 scFv in VL-VH orientation, displayed on SupT1 cells in a non-signalling CAR format (scFv, not shown: small tags and cut ends; large carriers) DIVMTQAAPSIPVTPGESVSISCRSSKSLLNSNGNTYLYWFLQRPGQSPQLLIYRMSNLASGVPDRFSGSGSGTAFTLRISRVEAEDVGVYYCMQHLEYPFTFGAGTKLELKRSGGGGSGGGGSGGGGSEVQLQQSGPELIKPGASVKMSCKASGYTFTSYVMHWVKQKPGQGLEWIGYINPYNDGTKYNEKFKGKATLTSDKSSSTAYMELSSLTSEDSAVYYCARGTYYYGSRVFDYWGQGTTLTVSS	–	–	binds
4g7 scFv in VH-VL orientation, displayed on SupT1 cells in a non-signalling CAR format (scFv, not shown: small tags and cut ends; large carriers) EVQLQQSGPELIKPGASVKMSCKASGYTFTSYVMHWVKQKPGQGLEWIGYINPYNDGTKYNEKFKGKATLTSDKSSSTAYMELSSLTSEDSAVYYCARGTYYYGSRVFDYWGQGTTLTVSSGGGGSGGGGSGGGGSDIVMTQAAPSIPVTPGESVSISCRSSKSLLNSNGNTYLYWFLQRPGQSPQLLIYRMSNLASGVPDRFSGSGSGTAFTLRISRVEAEDVGVYYCMQHLEYPFTFGAGTKLELKR	–	–	binds
CAT19 scFv in VH-VL orientation, displayed on SupT1 cells in a non-signalling CAR format (scFv, not shown: small tags and cut ends; large carriers) QVQLQQSGPELVKPGASVKISCKASGYAFSSSWMNWVKQRPGKGLEWIGRIYPGDEDTNYSGKFKDKATLTADKSSTTAYMQLSSLTSEDSAVYFCARSLLYGDYLDYWGQGTTLTVSSGGGGSGGGGSGGGGSQIVLTQSPAIMSASPGEKVTMTCSASSSVSYMHWYQQKSGTSPKRWIYDTSKLASGVPDRFSGSGSGTSYFLTINNMEAEDAATYYCQQWNINPLTFGAGTKLELKR	–	–	binds
